Some results come without the dose or concentration used.

One data set relates to myocardium. The data set can be described thus: HD PET versus standard reconstruction of imaging agent 1 perfusion images. In kind it is in vivo, human.
The next data set has as its system myocardial blood flow. The data set can be described thus: streamlined quantification of absolute myocardial blood flow at rest and stress. The following applies: for SMBF: peak adenosine. In kind it is in vivo, human.

In the case of `CC(C)(C)n1ncc(OCc2ccc(COCC[18F])cc2)c(Cl)c1=O` [imaging agent 1, 2-t-butyl-4-chloro-5-[4-(2-(^18F)fluoroethoxymethyl)-benzyloxy]-2H-pyridazin-3-1], the “average contrast between myocardial maximum and the 22 defects” value is given as 4.0±1.7 in the data set with myocardium (HD PET) and 3.2±1.2 in the data set on myocardium (SR). Also, the “average wall thickness, basal” value in the data set with myocardium (HD PET) is on record as 14.7±2.8 mm. In addition, the CFR with myocardial blood flow (CAD Reversible defect) was determined as 1.71 ± 0.41; with myocardial blood flow (Normal territory, LAD) it was 3.25 ± 0.25; in the data set on myocardial blood flow (Normal territory, LCX), 3.60 ± 0.86; in the data set with myocardial blood flow (Normal territory, RCA) it was 3.72 ± 0.49. The RMBF with myocardial blood flow (CAD Reversible defect) came to 0.69 ± 0.22; in the data set with myocardial blood flow (Normal territory, LAD), 0.76 ± 0.15; in the data set with myocardial blood flow (Normal territory, LCX), 0.74 ± 0.10; in the data set with myocardial blood flow (Normal territory, RCA) it was 0.75 ± 0.17. In addition, the SMBF in the data set on myocardial blood flow (Normal territory, LAD) is 2.48 ± 0.50; in the data set with myocardial blood flow (Normal territory, LCX), 2.66 ± 0.62; in the data set on myocardial blood flow (Normal territory, RCA), 2.78 ± 0.43.
